{"source": "patent US20210252009A1", "about": "“COMPOSITION COMPRISING FLT3 INHIBITOR AS EFFECTIVE INGREDIENT FOR INHIBITING DRUG RESISTANCE IN CHRONIC MYELOGENOUS LEUKEMIA” (INDUSTRY-ACADEMIC COOPERATION FOUNDATION, YONSEI UNIVERSITY, priority 2018, published 2021)", "test_system": "FLT3-transformed K562 cells having resistance to three drugs (imatinib, dasatinib and nilotinib)", "settings": "single agent; FIGS. 4-7", "note": "For at least one compound, name, drawing or mass did not settle the structure."}
{"compound": "Cc1nc(Nc2ncc(C(=O)Nc3c(C)cccc3Cl)s2)cc(N2CCN(CCO)CC2)n1", "note": "[dasatinib]", "values": [{"measurement": "Killing of resistant cells, treated only with the one agent", "result": "hardly killed"}]}
